Measured values reported in patent publication EP1736482A1.
These are yes or no findings as the source states them, for the method shown. Some entries that bind do so weakly or less than the wild type.

By UniProt entry, the sequences of proteins in these tests, tags left out. Residues count along the entry.
UniProt Q07011, residues 24-255: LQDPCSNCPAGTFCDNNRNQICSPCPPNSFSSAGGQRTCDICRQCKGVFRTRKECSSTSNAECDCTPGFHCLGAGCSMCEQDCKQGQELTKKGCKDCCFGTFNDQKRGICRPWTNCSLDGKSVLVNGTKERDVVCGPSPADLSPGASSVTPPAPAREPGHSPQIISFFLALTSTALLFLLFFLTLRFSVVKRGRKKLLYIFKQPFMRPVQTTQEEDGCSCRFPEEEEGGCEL
UniProt P41273, residues 93-254: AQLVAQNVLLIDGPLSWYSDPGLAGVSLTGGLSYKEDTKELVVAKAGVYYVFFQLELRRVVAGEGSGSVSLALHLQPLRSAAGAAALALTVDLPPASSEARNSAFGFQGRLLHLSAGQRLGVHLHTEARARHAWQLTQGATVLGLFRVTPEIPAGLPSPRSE

Target: 4-1BB on CD3-stimulated human T lymphocytes (PBMC) (human) (UniProt Q07011)
Test: flow cytometry on CD3-stimulated PBMC, ligand at 10 µg/ml revealed through anti-FLAG mAb

binding: binds
Substance: FLAG-4-1BBL (Alexis), FLAG peptide coupled to the TNF homology domain of human 4-1BBL through an undefined 11 aa linker (from UniProt P41273 93-254) (ligand)
